Results are given in words; binding and its absence hold for the method and conditions named. Binding can be weak; no strength is given. Where a sequence is shown, tags or fusion partners need not be part of it.

For the assay, the target named is T1, Arabidopsis FIGL1, full length, yeast two-hybrid fusion (Arabidopsis thaliana) (UniProt F4JEX5).
T1 sequence: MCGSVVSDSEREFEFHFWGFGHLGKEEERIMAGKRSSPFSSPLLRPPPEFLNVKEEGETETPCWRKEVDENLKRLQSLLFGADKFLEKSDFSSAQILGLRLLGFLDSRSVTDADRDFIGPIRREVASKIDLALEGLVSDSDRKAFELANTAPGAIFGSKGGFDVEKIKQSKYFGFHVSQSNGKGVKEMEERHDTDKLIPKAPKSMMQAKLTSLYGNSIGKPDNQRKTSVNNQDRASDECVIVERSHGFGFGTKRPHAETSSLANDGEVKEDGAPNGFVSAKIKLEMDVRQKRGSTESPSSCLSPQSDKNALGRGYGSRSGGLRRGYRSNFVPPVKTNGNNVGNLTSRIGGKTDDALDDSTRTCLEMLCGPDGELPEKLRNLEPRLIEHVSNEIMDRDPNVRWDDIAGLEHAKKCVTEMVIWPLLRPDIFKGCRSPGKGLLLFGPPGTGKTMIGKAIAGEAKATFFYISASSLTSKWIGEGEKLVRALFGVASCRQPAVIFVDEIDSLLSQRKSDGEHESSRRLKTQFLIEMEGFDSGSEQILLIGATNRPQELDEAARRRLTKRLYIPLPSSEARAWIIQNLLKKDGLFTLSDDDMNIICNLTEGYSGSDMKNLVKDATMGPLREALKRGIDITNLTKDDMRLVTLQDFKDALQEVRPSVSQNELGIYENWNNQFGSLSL
Nature of the assay: two-hybrid; Gal4 system (Clontech), pGBKT7 (BD) and pGADT7 (AD) fusions, yeast strains AH109 and Y187; growth on -LWH (weak) and -LWHA (strong).

Regarding “N-terminal half of Arabidopsis FLIP (1-502 amino acids), yeast two-hybrid fusion (domain or fragment)”, the binding result was “binds”.

These data come from paper PMC5897033.
